# Data from the supplement of paper PMC10849652.
# Protein sequences, listed by entry. Tags and fused reporters are not part of them. Lines headed by an entry give the natural chain unless they say otherwise; changes in a name come on top.
# UniProt Q5VZE5: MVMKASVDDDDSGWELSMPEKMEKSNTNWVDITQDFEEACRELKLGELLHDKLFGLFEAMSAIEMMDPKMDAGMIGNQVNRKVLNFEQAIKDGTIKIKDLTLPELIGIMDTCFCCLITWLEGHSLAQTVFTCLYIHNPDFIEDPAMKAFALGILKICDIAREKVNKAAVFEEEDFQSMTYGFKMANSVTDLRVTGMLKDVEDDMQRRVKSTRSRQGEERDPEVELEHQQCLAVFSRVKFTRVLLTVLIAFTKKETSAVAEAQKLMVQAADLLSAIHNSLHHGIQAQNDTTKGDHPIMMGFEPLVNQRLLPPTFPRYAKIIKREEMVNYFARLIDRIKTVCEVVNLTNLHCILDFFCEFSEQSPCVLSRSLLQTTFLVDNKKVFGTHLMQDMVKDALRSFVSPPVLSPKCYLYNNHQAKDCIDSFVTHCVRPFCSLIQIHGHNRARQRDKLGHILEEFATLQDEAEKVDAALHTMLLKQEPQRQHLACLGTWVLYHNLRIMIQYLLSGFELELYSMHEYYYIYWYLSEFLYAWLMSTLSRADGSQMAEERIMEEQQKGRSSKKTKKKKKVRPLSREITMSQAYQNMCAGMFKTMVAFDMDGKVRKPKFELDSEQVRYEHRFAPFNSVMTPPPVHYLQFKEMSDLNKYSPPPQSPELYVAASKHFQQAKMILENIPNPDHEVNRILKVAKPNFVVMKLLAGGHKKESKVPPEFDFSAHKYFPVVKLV
# UniProt P60660, whole entry, looked up: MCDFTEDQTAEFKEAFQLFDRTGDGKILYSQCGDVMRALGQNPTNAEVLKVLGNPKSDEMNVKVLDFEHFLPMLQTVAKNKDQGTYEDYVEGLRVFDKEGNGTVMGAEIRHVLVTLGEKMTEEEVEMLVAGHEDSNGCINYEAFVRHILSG
# UniProt Q9UBB6: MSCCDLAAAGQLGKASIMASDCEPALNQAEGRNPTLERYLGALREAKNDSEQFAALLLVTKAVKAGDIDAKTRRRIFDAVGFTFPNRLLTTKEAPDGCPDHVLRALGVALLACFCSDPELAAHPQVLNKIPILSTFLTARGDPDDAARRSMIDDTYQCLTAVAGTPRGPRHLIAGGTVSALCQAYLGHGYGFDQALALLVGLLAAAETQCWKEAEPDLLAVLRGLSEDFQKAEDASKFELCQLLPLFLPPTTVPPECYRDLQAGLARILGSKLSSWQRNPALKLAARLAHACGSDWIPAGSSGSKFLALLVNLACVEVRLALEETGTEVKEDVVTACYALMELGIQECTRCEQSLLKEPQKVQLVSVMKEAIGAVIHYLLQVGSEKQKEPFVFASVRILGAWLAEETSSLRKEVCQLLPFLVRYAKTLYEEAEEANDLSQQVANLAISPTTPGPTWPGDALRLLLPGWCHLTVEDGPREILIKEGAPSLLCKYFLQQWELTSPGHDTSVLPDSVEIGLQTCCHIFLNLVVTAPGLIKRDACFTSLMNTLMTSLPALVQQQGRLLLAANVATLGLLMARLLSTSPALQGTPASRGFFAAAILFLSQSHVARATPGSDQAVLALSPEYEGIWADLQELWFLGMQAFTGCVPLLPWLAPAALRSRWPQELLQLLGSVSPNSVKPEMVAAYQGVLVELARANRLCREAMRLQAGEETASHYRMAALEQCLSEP
# UniProt O43639, whole entry, looked up: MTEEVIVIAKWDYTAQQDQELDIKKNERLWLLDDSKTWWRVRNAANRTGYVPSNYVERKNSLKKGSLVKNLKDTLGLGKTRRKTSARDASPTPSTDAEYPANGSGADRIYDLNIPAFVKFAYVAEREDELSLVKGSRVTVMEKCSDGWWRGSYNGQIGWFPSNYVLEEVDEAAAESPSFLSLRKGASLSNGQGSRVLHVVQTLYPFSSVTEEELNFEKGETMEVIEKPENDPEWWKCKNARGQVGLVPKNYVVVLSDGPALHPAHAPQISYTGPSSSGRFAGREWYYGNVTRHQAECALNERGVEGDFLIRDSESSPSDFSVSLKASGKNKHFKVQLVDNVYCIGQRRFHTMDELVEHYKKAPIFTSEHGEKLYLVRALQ
# UniProt Q8TBE9: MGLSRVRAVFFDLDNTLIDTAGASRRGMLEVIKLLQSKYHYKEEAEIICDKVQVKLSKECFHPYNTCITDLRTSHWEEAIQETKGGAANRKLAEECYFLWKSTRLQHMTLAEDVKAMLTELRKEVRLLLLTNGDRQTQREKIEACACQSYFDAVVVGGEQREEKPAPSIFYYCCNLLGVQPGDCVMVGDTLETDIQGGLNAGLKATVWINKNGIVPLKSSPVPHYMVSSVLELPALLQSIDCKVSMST
# UniProt P12829: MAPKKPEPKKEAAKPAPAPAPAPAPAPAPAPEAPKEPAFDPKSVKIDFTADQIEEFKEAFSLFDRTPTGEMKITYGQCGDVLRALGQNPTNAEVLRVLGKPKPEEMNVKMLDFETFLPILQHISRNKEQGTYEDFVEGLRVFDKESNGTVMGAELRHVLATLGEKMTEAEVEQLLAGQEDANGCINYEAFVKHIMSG
# UniProt O43776: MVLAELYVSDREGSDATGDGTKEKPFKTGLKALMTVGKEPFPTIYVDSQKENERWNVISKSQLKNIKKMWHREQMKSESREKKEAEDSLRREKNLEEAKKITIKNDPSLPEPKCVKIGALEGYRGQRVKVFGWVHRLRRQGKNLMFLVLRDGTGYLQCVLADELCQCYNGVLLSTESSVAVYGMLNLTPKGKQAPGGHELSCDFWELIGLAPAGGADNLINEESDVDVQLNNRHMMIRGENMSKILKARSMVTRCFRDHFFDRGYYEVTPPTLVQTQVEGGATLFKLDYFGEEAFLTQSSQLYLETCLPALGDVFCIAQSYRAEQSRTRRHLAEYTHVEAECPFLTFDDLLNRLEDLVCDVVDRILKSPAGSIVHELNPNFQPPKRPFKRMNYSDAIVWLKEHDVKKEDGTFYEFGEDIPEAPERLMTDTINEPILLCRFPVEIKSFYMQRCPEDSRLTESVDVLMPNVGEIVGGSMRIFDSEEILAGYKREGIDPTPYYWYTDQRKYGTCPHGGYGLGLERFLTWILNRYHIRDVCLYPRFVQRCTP
# UniProt P42695: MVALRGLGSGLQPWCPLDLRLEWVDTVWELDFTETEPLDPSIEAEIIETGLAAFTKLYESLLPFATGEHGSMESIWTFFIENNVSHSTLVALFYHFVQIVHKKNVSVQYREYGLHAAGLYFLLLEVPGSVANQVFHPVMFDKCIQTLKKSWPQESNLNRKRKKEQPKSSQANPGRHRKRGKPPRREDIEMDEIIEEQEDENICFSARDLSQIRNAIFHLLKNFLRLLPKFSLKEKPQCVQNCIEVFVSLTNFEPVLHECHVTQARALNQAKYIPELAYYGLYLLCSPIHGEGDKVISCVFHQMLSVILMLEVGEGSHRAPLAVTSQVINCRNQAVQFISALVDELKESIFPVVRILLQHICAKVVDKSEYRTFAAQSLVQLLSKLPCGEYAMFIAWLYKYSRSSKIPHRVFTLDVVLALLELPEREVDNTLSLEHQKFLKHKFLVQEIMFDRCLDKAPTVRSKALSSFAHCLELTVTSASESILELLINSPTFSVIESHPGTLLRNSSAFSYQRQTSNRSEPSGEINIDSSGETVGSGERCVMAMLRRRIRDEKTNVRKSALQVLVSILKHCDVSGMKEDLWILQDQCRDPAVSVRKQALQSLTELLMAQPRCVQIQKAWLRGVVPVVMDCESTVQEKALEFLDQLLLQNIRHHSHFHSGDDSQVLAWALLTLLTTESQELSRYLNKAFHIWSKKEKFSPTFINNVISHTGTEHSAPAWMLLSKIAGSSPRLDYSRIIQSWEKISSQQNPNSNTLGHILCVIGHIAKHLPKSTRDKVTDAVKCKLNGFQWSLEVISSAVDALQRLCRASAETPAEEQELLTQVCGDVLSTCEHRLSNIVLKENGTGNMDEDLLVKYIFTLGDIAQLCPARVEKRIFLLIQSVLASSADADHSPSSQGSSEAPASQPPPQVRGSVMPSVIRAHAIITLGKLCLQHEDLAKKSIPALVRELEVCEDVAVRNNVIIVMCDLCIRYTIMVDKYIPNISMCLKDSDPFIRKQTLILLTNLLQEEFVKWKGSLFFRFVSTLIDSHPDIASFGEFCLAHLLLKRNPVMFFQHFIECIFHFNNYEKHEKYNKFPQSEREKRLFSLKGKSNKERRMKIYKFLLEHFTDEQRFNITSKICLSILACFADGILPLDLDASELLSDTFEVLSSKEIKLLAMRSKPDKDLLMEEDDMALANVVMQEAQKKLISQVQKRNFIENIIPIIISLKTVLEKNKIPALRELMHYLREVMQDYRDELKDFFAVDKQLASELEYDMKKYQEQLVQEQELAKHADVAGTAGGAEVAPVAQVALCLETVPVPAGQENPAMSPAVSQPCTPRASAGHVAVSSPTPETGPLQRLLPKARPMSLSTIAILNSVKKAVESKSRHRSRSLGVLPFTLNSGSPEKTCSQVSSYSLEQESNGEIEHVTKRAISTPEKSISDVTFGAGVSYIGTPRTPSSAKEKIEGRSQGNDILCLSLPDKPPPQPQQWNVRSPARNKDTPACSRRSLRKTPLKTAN
# UniProt O60934: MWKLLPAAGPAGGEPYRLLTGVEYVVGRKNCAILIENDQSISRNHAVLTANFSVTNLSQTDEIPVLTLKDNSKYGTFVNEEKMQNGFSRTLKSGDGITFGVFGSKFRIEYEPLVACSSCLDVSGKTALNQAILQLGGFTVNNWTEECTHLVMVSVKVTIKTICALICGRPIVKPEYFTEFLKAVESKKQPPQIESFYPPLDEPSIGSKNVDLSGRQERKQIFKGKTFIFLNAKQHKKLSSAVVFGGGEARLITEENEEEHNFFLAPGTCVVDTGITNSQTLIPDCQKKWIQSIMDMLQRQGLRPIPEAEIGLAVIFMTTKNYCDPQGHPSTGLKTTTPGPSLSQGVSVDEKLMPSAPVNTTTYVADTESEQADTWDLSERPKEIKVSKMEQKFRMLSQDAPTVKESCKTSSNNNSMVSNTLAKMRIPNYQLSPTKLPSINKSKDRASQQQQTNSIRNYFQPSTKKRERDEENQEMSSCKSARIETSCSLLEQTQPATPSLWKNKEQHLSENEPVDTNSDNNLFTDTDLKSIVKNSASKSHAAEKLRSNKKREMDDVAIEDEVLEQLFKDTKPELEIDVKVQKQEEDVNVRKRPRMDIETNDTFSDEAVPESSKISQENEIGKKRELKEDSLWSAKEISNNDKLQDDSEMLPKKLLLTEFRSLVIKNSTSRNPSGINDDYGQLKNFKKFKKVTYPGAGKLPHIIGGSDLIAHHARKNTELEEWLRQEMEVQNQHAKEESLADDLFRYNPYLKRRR
# UniProt Q96S97: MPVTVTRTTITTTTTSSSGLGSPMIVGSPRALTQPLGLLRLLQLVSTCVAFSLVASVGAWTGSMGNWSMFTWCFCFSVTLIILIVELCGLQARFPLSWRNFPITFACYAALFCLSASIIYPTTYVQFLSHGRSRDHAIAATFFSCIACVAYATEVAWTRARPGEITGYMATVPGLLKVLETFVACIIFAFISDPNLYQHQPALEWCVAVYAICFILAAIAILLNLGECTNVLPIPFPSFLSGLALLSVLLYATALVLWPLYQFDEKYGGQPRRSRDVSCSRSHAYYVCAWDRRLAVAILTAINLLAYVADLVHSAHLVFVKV
# UniProt Q9Y5N5: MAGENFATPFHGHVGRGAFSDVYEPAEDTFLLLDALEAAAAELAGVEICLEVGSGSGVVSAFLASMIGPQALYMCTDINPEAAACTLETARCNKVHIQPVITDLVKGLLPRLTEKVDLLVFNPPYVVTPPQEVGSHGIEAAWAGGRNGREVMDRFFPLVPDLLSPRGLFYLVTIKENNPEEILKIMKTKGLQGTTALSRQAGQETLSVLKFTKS
# UniProt P61599, whole entry, looked up: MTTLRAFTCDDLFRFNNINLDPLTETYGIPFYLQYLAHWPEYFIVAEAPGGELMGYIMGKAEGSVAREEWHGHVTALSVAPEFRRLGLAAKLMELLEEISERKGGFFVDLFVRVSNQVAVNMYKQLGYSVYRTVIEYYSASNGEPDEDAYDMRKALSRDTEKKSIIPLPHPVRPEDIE
# UniProt Q8NCW5: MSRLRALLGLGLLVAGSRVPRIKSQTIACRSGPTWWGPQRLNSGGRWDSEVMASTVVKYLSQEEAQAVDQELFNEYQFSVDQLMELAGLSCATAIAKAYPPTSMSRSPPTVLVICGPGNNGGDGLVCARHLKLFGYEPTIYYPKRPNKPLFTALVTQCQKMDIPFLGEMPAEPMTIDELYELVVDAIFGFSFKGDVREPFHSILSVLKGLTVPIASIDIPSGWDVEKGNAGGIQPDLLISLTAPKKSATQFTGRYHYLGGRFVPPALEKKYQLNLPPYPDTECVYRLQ
# This is one part of the list.
# Assays:
# Assay in all cases: log2 fold change, soluble protein after heating vs DMSO (PISA); higher = thermal stabilisation; K562 lysate, 10 uM; active = over 0.2 and 3.5 SD of the protein, either way, in both replicates (recomputed)
# vemurafenib = compound: CCCS(=O)(=O)Nc1ccc(F)c(C(=O)c2c[nH]c3ncc(-c4ccc(Cl)cc4)cc23)c1F [vemurafenib]
# Outline: (§1)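 Pellets of K562 cells were dounce-homogenised in PBS pH 7.4 with 1 mM MgCl2, and the crude extract was held at 1 mg/mL protein for a 30 min treatment with 10 μM compound. Aliquots were heated for 3 min over 48°C-58°C and pooled before NP-40 was added to 0.5% at 4°C. The supernatant from 21,000xg for 90 min was quantified by TMTpro 16plex LC-MS/MS with channel sums equalised. Values are reported from duplicates as log-two fold change in thermal stability relative to solvent controls.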
# [1] = compound: CCCS(=O)(=O)Nc1ccc(F)c(C(=O)c2c[nH]c3ncc(Cl)cc23)c1F
# Outline: as §1
# barasertib = compound: CCN(CCCOc1ccc2c(Nc3cc(CC(=O)Nc4cccc(F)c4)[nH]n3)ncnc2c1)CCOP(=O)(O)O [barasertib]
# Outline: as §1
# [2] = compound: CC[C@@H]1C(=O)N(C)c2cnc(Nc3ccc(C(=O)NC4CCN(C)CC4)cc3OC)nc2N1C1CCCC1
# Outline: as §1
# volasertib = compound: CC[C@@H]1C(=O)N(C)c2cnc(Nc3ccc(C(=O)N[C@H]4CC[C@H](N5CCN(CC6CC6)CC5)CC4)cc3OC)nc2N1C(C)C [volasertib]
# Outline: as §1
# [3] = compound: CCn1c(C(=O)N(C2CC2)C2CC2)cc2c3c(ncn3C)c(Nc3cc(C)n(C)n3)nc21
# Outline: as §1
# [4] = compound: CCn1cc(-c2ccnc3[nH]c(-c4cccc(CN(C)C)c4)cc23)c(-c2ccc(NC(=O)N(C)C)cc2)n1
# Outline: as §1
# [5] = compound: CN1CCC(CNc2ccc3ncc(-c4cccc(OC(F)(F)F)c4)n3n2)CC1
# Outline: as §1
# saracatinib = compound: CN1CCN(CCOc2cc(OC3CCOCC3)c3c(Nc4c(Cl)ccc5c4OCO5)ncnc3c2)CC1 [saracatinib]
# Outline: as §1
# sotrastaurin = compound: CN1CCN(c2nc(C3=C(c4c[nH]c5ccccc45)C(=O)NC3=O)c3ccccc3n2)CC1 [sotrastaurin]
# Outline: as §1
# alvocidib = compound: CN1CC[C@H](c2c(O)cc(O)c3c(=O)cc(-c4ccccc4Cl)oc23)[C@H](O)C1 [alvocidib]
# Outline: as §1
# Tubastatin A = compound: CN1CCc2c(c3ccccc3n2Cc2ccc(C(=O)NO)cc2)C1 [Tubastatin A]
# Outline: as §1
# [6] = compound: CNC(=O)C1=CC=CC=C1NC2=NC(=NC=C2Cl)NC3=C(C=C(C=C3)N4CCOCC4)OC
# Outline: as §1
# defactinib = compound: CNC(=O)c1ccc(Nc2ncc(C(F)(F)F)c(NCc3nccnc3N(C)S(C)(=O)=O)n2)cc1 [defactinib]
# Outline: as §1
# [7] = compound: CNc1nc(-c2ccc3c(N)n[nH]c3c2)cc(N2C[C@@H](C(=O)NC3CCCCC3)CC[C@H]2C)n1
# Outline: as §1
# encorafenib = compound: COC(=O)N[C@@H](C)CNc1nccc(-c2cn(C(C)C)nc2-c2cc(Cl)cc(NS(C)(=O)=O)c2F)n1 [encorafenib]
# Outline: as §1
# [8] = compound: COC(=O)[C@H](CCSC)NC(=O)C1=C(C=C(C=C1)NC[C@H](CS)N)C2=CC=CC=C2
# Outline: as §1
# alisertib = compound: COc1cc(Nc2ncc3c(n2)-c2ccc(Cl)cc2C(c2c(F)cccc2OC)=NC3)ccc1C(=O)O [alisertib]
# Outline: as §1
# [9] = compound: COc1cc2nc(-c3cc(F)ccc3O)nc(N[C@@H]3CNC[C@H]3C(C)(C)O)c2cc1OC
# Outline: as §1
# gefitinib = compound: COc1cc2ncnc(Nc3ccc(F)c(Cl)c3)c2cc1OCCCN1CCOCC1 [gefitinib]
# Outline: as §1
Target,log2 fold change (vemurafenib),log2 fold change [1],log2 fold change (barasertib),log2 fold change [2],log2 fold change (volasertib),log2 fold change [3],log2 fold change [4],log2 fold change [5],log2 fold change (saracatinib),log2 fold change (sotrastaurin),log2 fold change (alvocidib),log2 fold change (Tubastatin A),log2 fold change [6],log2 fold change (defactinib),log2 fold change [7],log2 fold change (encorafenib),log2 fold change [8],log2 fold change (alisertib),log2 fold change [9],log2 fold change (gefitinib)
NAA35 (UniProt Q5VZE5),inactive: 0,inactive: 0.015,inactive: -0.01,inactive: 0.05,inactive: -0.026,inactive: 0.001,inactive: 0.179,inactive: -0.035,inactive: 0.026,inactive: 0.006,inactive: 0.018,inactive: -0.056,inactive: -0.007,inactive: 0.034,inactive: 0,inactive: 0.01,inactive: -0.001,inactive: -0.026,inactive: -0.006,inactive: -0.008
NAA40 (UniProt Q86UY6),inactive: 0.029,inactive: -0.051,inactive: -0.029,inactive: -0.098,inactive: 0.005,inactive: -0.002,inactive: -0.088,inactive: -0.02,inactive: -0.062,inactive: 0.04,inactive: -0.041,inactive: -0.07,inactive: -0.008,inactive: -0.079,inactive: -0.009,inactive: 0.045,inactive: 0.03,inactive: -0.04,inactive: -0.089,inactive: 0.01
MYL6 (UniProt P60660),inactive: -0.009,inactive: -0.032,inactive: 0.163,inactive: 0.052,inactive: 0.043,inactive: 0.006,inactive: -0.073,inactive: -0.054,inactive: -0.008,inactive: -0.017,inactive: 0.055,inactive: 0.022,inactive: -0.019,inactive: 0.013,inactive: -0.015,inactive: -0.012,inactive: -0.056,inactive: 0.043,inactive: -0.031,inactive: -0.034
NCDN isoform 3 (UniProt Q9UBB6),inactive: -0.023,inactive: 0.022,inactive: 0.007,inactive: -0.038,inactive: -0.051,inactive: 0.01,inactive: 0.017,inactive: -0.067,inactive: 0.042,inactive: 0.025,inactive: 0.025,inactive: -0.099,inactive: 0.014,inactive: 0.007,inactive: -0.015,inactive: 0.01,inactive: -0.072,inactive: -0.003,inactive: 0.002,inactive: -0.01
NCK2 (UniProt O43639),inactive: 0.018,inactive: 0.004,inactive: 0.076,inactive: -0.146,inactive: -0.061,inactive: 0.055,inactive: 0.048,inactive: -0.021,inactive: 0.024,inactive: 0.046,inactive: 0.04,inactive: -0.073,inactive: 0.081,inactive: -0.033,inactive: -0.139,inactive: 0.011,inactive: -0.128,inactive: 0.05,inactive: 0.015,inactive: 0.084
NANP (UniProt Q8TBE9),inactive: -0.037,inactive: 0,inactive: 0.021,inactive: -0.052,inactive: -0.041,inactive: 0.067,inactive: -0.041,inactive: 0.149,inactive: 0.027,inactive: 0.007,inactive: -0.052,inactive: -0.032,inactive: 0.104,inactive: 0.067,inactive: 0.059,inactive: 0.119,inactive: -0.18,inactive: 0.035,inactive: -0.015,inactive: 0.023
MYL4 (UniProt P12829),inactive: -0.001,inactive: 0.011,inactive: 0.206,inactive: 0.018,inactive: 0.049,inactive: -0.04,inactive: -0.081,inactive: -0.013,inactive: -0.011,inactive: -0.019,inactive: 0.019,inactive: 0.054,inactive: 0.019,inactive: 0.058,inactive: 0.024,inactive: 0.001,inactive: -0.096,inactive: 0.015,inactive: 0.021,inactive: -0.08
NARS1 (UniProt O43776),inactive: -0.004,inactive: -0.005,inactive: -0.027,inactive: -0.016,inactive: -0.036,inactive: 0.011,inactive: 0.02,inactive: 0.018,inactive: 0.012,inactive: 0.003,inactive: 0.024,inactive: -0.028,inactive: 0.001,inactive: -0.021,inactive: -0.03,inactive: 0.005,inactive: 0.047,inactive: 0.015,inactive: 0.057,inactive: -0.005
NCAPD3 (UniProt P42695),inactive: -0.032,inactive: 0.047,inactive: 0.06,inactive: -0.013,inactive: -0.088,inactive: 0.035,inactive: 0.068,inactive: -0.015,inactive: 0.008,inactive: 0.003,inactive: -0.006,inactive: -0.224,inactive: 0.017,inactive: 0.017,inactive: 0.013,inactive: 0.037,inactive: -0.018,inactive: -0.017,inactive: 0,inactive: -0.002
NBN (UniProt O60934),inactive: 0.011,inactive: 0.011,inactive: 0.037,inactive: -0.028,inactive: -0.019,inactive: -0.003,inactive: 0.043,inactive: -0.058,inactive: 0.025,inactive: 0.001,inactive: 0.008,inactive: -0.041,inactive: -0.006,inactive: -0.029,inactive: 0.014,inactive: 0.022,inactive: 0.048,inactive: -0.009,inactive: 0.018,inactive: -0.061
MVB12A (UniProt Q96EY5),inactive: -0.017,inactive: 0.005,inactive: -0.04,inactive: 0.094,inactive: -0.001,inactive: 0.03,inactive: 0.009,inactive: -0.001,inactive: 0.015,inactive: 0.01,inactive: -0.019,inactive: -0.221,inactive: -0.009,inactive: 0.056,inactive: 0.037,inactive: -0.015,inactive: -0.012,inactive: -0.011,inactive: -0.035,inactive: -0.055
MYADM (UniProt Q96S97),inactive: -0.062,inactive: 0.014,inactive: 0.075,inactive: 0.16,inactive: -0.007,inactive: -0.054,inactive: -0.059,inactive: 0.039,inactive: 0.039,inactive: 0.001,inactive: -0.068,inactive: -0.045,inactive: 0.027,inactive: -0.019,inactive: 0.007,inactive: 0.055,inactive: 0.01,inactive: 0.016,inactive: -0.004,inactive: 0.008
N6AMT1 (UniProt Q9Y5N5),inactive: 0.201,inactive: -0.016,inactive: 0.113,inactive: 0.005,inactive: -0.04,inactive: 0.006,inactive: -0.047,inactive: -0.048,inactive: 0.019,inactive: 0.038,inactive: 0.062,inactive: 0.026,inactive: 0.048,active: 0.361,inactive: 0.021,inactive: -0.011,inactive: 0.069,inactive: -0.084,inactive: 0.004,inactive: -0.045
NAA20 (UniProt P61599),inactive: 0.057,inactive: 0.027,inactive: 0.133,inactive: -0.041,inactive: -0.036,inactive: 0.017,inactive: 0.058,inactive: 0.001,inactive: 0.015,inactive: 0.008,inactive: 0.055,inactive: 0.002,inactive: 0.05,inactive: 0.04,inactive: 0.004,inactive: 0.03,inactive: 0.103,inactive: 0.005,inactive: 0.009,inactive: -0.099
NAXE (UniProt Q8NCW5),inactive: -0.007,inactive: -0.005,inactive: 0.182,inactive: 0.053,inactive: 0.042,inactive: 0.016,inactive: -0.009,inactive: -0.01,inactive: -0.003,inactive: -0.013,inactive: 0.038,inactive: 0.079,inactive: 0,inactive: 0.06,inactive: 0.027,inactive: -0.007,inactive: -0.003,inactive: -0.017,inactive: 0.001,inactive: -0.003

# In another format: results already given.
Target | log2 fold change (vemurafenib) | log2 fold change [1] | log2 fold change (barasertib) | log2 fold change [2] | log2 fold change (volasertib) | log2 fold change [3] | log2 fold change [4] | log2 fold change [5] | log2 fold change (saracatinib) | log2 fold change (sotrastaurin) | log2 fold change (alvocidib) | log2 fold change (Tubastatin A) | log2 fold change [6] | log2 fold change (defactinib) | log2 fold change [7] | log2 fold change (encorafenib) | log2 fold change [8] | log2 fold change (alisertib) | log2 fold change [9] | log2 fold change (gefitinib)
NAA35 (UniProt Q5VZE5) | inactive: 0 | inactive: 0.015 | inactive: -0.01 | inactive: 0.05 | inactive: -0.026 | inactive: 0.001 | inactive: 0.179 | inactive: -0.035 | inactive: 0.026 | inactive: 0.006 | inactive: 0.018 | inactive: -0.056 | inactive: -0.007 | inactive: 0.034 | inactive: 0 | inactive: 0.01 | inactive: -0.001 | inactive: -0.026 | inactive: -0.006 | inactive: -0.008
NAA40 (UniProt Q86UY6) | inactive: 0.029 | inactive: -0.051 | inactive: -0.029 | inactive: -0.098 | inactive: 0.005 | inactive: -0.002 | inactive: -0.088 | inactive: -0.02 | inactive: -0.062 | inactive: 0.04 | inactive: -0.041 | inactive: -0.07 | inactive: -0.008 | inactive: -0.079 | inactive: -0.009 | inactive: 0.045 | inactive: 0.03 | inactive: -0.04 | inactive: -0.089 | inactive: 0.01
